Test results from article PMC4906247.
These are yes or no findings as the source states them, for the method shown. In cells and extracts the contact can be indirect. Some entries that bind do so weakly or less than the wild type.

Protein sequences, listed by entry. Tags and fused reporters are not part of them.
UniProt Q9UIK4: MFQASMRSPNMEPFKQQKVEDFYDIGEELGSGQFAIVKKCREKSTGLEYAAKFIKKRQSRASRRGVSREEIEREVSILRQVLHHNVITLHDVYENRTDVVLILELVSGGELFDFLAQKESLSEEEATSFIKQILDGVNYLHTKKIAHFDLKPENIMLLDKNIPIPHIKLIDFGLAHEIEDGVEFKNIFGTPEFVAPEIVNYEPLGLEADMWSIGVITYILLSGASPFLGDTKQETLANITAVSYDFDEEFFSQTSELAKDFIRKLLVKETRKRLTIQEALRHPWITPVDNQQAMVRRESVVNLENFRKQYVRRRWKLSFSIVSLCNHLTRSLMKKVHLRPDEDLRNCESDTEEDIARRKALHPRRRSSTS

Molecular target: full-length hDAPK2 (hDAPK2 FL), BiFC construct (human) (UniProt Q9UIK4)
Assay: split reporter; bimolecular fluorescence complementation in HEK293T cells, readout normalized to protein expression; endogenous Ca2+/CaM present

“full-length hDAPK2 (hDAPK2 FL), BiFC construct (from UniProt Q9UIK4 1-370)” was tested, and the binding was “binds”.
